Test results as given in the supplement of paper PMC6078165.

Tested on: BT20
Experiment: relative JC-1 red fluorescence (viability) vs pre-drug, coculture with fibroblast (fraction); higher = more viable cancer cells
Conditions: 10 µM
Description: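 JC-1 labelled TNBC cells cocultured 1:1 (1,500 cells each) with CellTrace Violet stained primary or stromal fibroblasts in 384-well plates in FluoroBrite medium, treated with one of 42 anticancer drugs at 0.1, 1, 10 or 100 uM. JC-1 red fluorescence (mitochondrial integrity in cancer cells only) was read by plate reader every 8 h for 72 h. Values are normalised to each well's pre-drug value. The stock of one drug was tenfold lower, so its dose labels may be too high.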

CC(C)(C#N)c1cc(Cn2cncn2)cc(C(C)(C)C#N)c1 [Anastrozole]
relative JC-1 red fluorescence (8 h, coculture fibroblast: C12385): 0.90435 ± 0.00044
relative JC-1 red fluorescence (8 h, coculture fibroblast: H6013): 0.928 ± 0.017
relative JC-1 red fluorescence (8 h, coculture fibroblast: H6019): 0.8921 ± 0.0034
relative JC-1 red fluorescence (8 h, coculture fibroblast: H6076): 0.985 ± 0.02
relative JC-1 red fluorescence (8 h, coculture fibroblast: H6231): 0.835 ± 0.13
relative JC-1 red fluorescence (8 h, coculture fibroblast: HADF): 0.812 ± 0.1
relative JC-1 red fluorescence (8 h, coculture fibroblast: HCFa): 0.934 ± 0.034
relative JC-1 red fluorescence (8 h, coculture fibroblast: HCPF): 0.875 ± 0.059
relative JC-1 red fluorescence (8 h, coculture fibroblast: HHSteC): 0.9325 ± 0.0024
relative JC-1 red fluorescence (8 h, coculture fibroblast: HMF): 0.923 ± 0.066
relative JC-1 red fluorescence (8 h, coculture fibroblast: HPFa): 0.954 ± 0.021
relative JC-1 red fluorescence (8 h, coculture fibroblast: HUF): 0.954 ± 0.038
relative JC-1 red fluorescence (8 h, coculture fibroblast: Hs5): 0.912 ± 0.074
relative JC-1 red fluorescence (8 h, coculture fibroblast: Hs27A): 0.81157 ± 0.00059
relative JC-1 red fluorescence (8 h, coculture fibroblast: Hs343T): 0.968 ± 0.017
relative JC-1 red fluorescence (8 h, coculture fibroblast: WS1): 0.8539 ± 0.0058
relative JC-1 red fluorescence (16 h, coculture fibroblast: C12385): 0.794 ± 0.0086
relative JC-1 red fluorescence (16 h, coculture fibroblast: H6013): 0.8649 ± 0.0079
relative JC-1 red fluorescence (16 h, coculture fibroblast: H6019): 0.814 ± 0.032
relative JC-1 red fluorescence (16 h, coculture fibroblast: H6076): 0.895 ± 0.071
relative JC-1 red fluorescence (16 h, coculture fibroblast: H6231): 0.955 ± 0.044
relative JC-1 red fluorescence (16 h, coculture fibroblast: HADF): 0.88659 ± 0.00073
relative JC-1 red fluorescence (16 h, coculture fibroblast: HCFa): 0.862 ± 0.053
relative JC-1 red fluorescence (16 h, coculture fibroblast: HCPF): 0.92 ± 0.03
relative JC-1 red fluorescence (16 h, coculture fibroblast: HHSteC): 0.84 ± 0.0099
relative JC-1 red fluorescence (16 h, coculture fibroblast: HMF): 0.9 ± 0.062
relative JC-1 red fluorescence (16 h, coculture fibroblast: HPFa): 0.86 ± 0.068
relative JC-1 red fluorescence (16 h, coculture fibroblast: HUF): 0.835 ± 0.076
relative JC-1 red fluorescence (16 h, coculture fibroblast: Hs5): 0.92 ± 0.066
relative JC-1 red fluorescence (16 h, coculture fibroblast: Hs27A): 0.856 ± 0.028
relative JC-1 red fluorescence (16 h, coculture fibroblast: Hs343T): 0.876 ± 0.038
relative JC-1 red fluorescence (16 h, coculture fibroblast: WS1): 0.772 ± 0.024
relative JC-1 red fluorescence (24 h, coculture fibroblast: C12385): 0.763 ± 0.02
relative JC-1 red fluorescence (24 h, coculture fibroblast: H6013): 0.833 ± 0.046
relative JC-1 red fluorescence (24 h, coculture fibroblast: H6019): 0.797 ± 0.052
relative JC-1 red fluorescence (24 h, coculture fibroblast: H6076): 0.808 ± 0.077
relative JC-1 red fluorescence (24 h, coculture fibroblast: H6231): 0.832 ± 0.035
relative JC-1 red fluorescence (24 h, coculture fibroblast: HADF): 0.838 ± 0.046
relative JC-1 red fluorescence (24 h, coculture fibroblast: HCFa): 0.838 ± 0.1
relative JC-1 red fluorescence (24 h, coculture fibroblast: HCPF): 0.849 ± 0.02
relative JC-1 red fluorescence (24 h, coculture fibroblast: HHSteC): 0.818 ± 0.016
relative JC-1 red fluorescence (24 h, coculture fibroblast: HMF): 0.799 ± 0.085
relative JC-1 red fluorescence (24 h, coculture fibroblast: HPFa): 0.853 ± 0.088
relative JC-1 red fluorescence (24 h, coculture fibroblast: HUF): 0.822 ± 0.11
relative JC-1 red fluorescence (24 h, coculture fibroblast: Hs5): 0.848 ± 0.045
relative JC-1 red fluorescence (24 h, coculture fibroblast: Hs27A): 0.88498 ± 0.00063
relative JC-1 red fluorescence (24 h, coculture fibroblast: Hs343T): 0.764 ± 0.062
relative JC-1 red fluorescence (24 h, coculture fibroblast: WS1): 0.731 ± 0.045
relative JC-1 red fluorescence (32 h, coculture fibroblast: C12385): 0.704 ± 0.027
relative JC-1 red fluorescence (32 h, coculture fibroblast: H6013): 0.799 ± 0.049
relative JC-1 red fluorescence (32 h, coculture fibroblast: H6019): 0.725 ± 0.06
relative JC-1 red fluorescence (32 h, coculture fibroblast: H6076): 0.765 ± 0.076
relative JC-1 red fluorescence (32 h, coculture fibroblast: H6231): 0.766 ± 0.021
relative JC-1 red fluorescence (32 h, coculture fibroblast: HADF): 0.804 ± 0.043
relative JC-1 red fluorescence (32 h, coculture fibroblast: HCFa): 0.774 ± 0.12
relative JC-1 red fluorescence (32 h, coculture fibroblast: HCPF): 0.8042 ± 0.0053
relative JC-1 red fluorescence (32 h, coculture fibroblast: HHSteC): 0.743 ± 0.015
relative JC-1 red fluorescence (32 h, coculture fibroblast: HMF): 0.744 ± 0.1
relative JC-1 red fluorescence (32 h, coculture fibroblast: HPFa): 0.762 ± 0.11
relative JC-1 red fluorescence (32 h, coculture fibroblast: HUF): 0.744 ± 0.12
relative JC-1 red fluorescence (32 h, coculture fibroblast: Hs5): 0.797 ± 0.012
relative JC-1 red fluorescence (32 h, coculture fibroblast: Hs27A): 0.891 ± 0.021
relative JC-1 red fluorescence (32 h, coculture fibroblast: Hs343T): 0.714 ± 0.058
relative JC-1 red fluorescence (32 h, coculture fibroblast: WS1): 0.655 ± 0.045
relative JC-1 red fluorescence (40 h, coculture fibroblast: C12385): 0.648 ± 0.04
relative JC-1 red fluorescence (40 h, coculture fibroblast: H6013): 0.758 ± 0.06
relative JC-1 red fluorescence (40 h, coculture fibroblast: H6019): 0.67 ± 0.061
relative JC-1 red fluorescence (40 h, coculture fibroblast: H6076): 0.73 ± 0.081
relative JC-1 red fluorescence (40 h, coculture fibroblast: H6231): 0.715 ± 0.03
relative JC-1 red fluorescence (40 h, coculture fibroblast: HADF): 0.761 ± 0.055
relative JC-1 red fluorescence (40 h, coculture fibroblast: HCFa): 0.741 ± 0.13
relative JC-1 red fluorescence (40 h, coculture fibroblast: HCPF): 0.7618 ± 0.0068
relative JC-1 red fluorescence (40 h, coculture fibroblast: HHSteC): 0.686 ± 0.023
relative JC-1 red fluorescence (40 h, coculture fibroblast: HMF): 0.701 ± 0.096
relative JC-1 red fluorescence (40 h, coculture fibroblast: HPFa): 0.723 ± 0.13
relative JC-1 red fluorescence (40 h, coculture fibroblast: HUF): 0.693 ± 0.13
relative JC-1 red fluorescence (40 h, coculture fibroblast: Hs5): 0.7517 ± 0.0036
relative JC-1 red fluorescence (40 h, coculture fibroblast: Hs27A): 0.821 ± 0.0094
relative JC-1 red fluorescence (40 h, coculture fibroblast: Hs343T): 0.667 ± 0.058
relative JC-1 red fluorescence (40 h, coculture fibroblast: WS1): 0.6 ± 0.046
relative JC-1 red fluorescence (48 h, coculture fibroblast: C12385): 0.612 ± 0.052
relative JC-1 red fluorescence (48 h, coculture fibroblast: H6013): 0.753 ± 0.069
relative JC-1 red fluorescence (48 h, coculture fibroblast: H6019): 0.643 ± 0.049
relative JC-1 red fluorescence (48 h, coculture fibroblast: H6076): 0.699 ± 0.082
relative JC-1 red fluorescence (48 h, coculture fibroblast: H6231): 0.662 ± 0.021
relative JC-1 red fluorescence (48 h, coculture fibroblast: HADF): 0.723 ± 0.056
relative JC-1 red fluorescence (48 h, coculture fibroblast: HCFa): 0.708 ± 0.13
relative JC-1 red fluorescence (48 h, coculture fibroblast: HCPF): 0.7146 ± 0.0039
relative JC-1 red fluorescence (48 h, coculture fibroblast: HHSteC): 0.647 ± 0.013
relative JC-1 red fluorescence (48 h, coculture fibroblast: HMF): 0.656 ± 0.098
relative JC-1 red fluorescence (48 h, coculture fibroblast: HPFa): 0.674 ± 0.14
relative JC-1 red fluorescence (48 h, coculture fibroblast: HUF): 0.655 ± 0.14
relative JC-1 red fluorescence (48 h, coculture fibroblast: Hs5): 0.709 ± 0.01
relative JC-1 red fluorescence (48 h, coculture fibroblast: Hs27A): 0.79 ± 0.022
relative JC-1 red fluorescence (48 h, coculture fibroblast: Hs343T): 0.616 ± 0.062
relative JC-1 red fluorescence (48 h, coculture fibroblast: WS1): 0.559 ± 0.054
relative JC-1 red fluorescence (56 h, coculture fibroblast: C12385): 0.585 ± 0.044
relative JC-1 red fluorescence (56 h, coculture fibroblast: H6013): 0.75 ± 0.079
relative JC-1 red fluorescence (56 h, coculture fibroblast: H6019): 0.598 ± 0.052
relative JC-1 red fluorescence (56 h, coculture fibroblast: H6076): 0.685 ± 0.073
relative JC-1 red fluorescence (56 h, coculture fibroblast: H6231): 0.62 ± 0.014
relative JC-1 red fluorescence (56 h, coculture fibroblast: HADF): 0.704 ± 0.073
relative JC-1 red fluorescence (56 h, coculture fibroblast: HCFa): 0.686 ± 0.14
relative JC-1 red fluorescence (56 h, coculture fibroblast: HCPF): 0.668 ± 0.0037
relative JC-1 red fluorescence (56 h, coculture fibroblast: HHSteC): 0.624 ± 0.021
relative JC-1 red fluorescence (56 h, coculture fibroblast: HMF): 0.611 ± 0.1
relative JC-1 red fluorescence (56 h, coculture fibroblast: HPFa): 0.639 ± 0.14
relative JC-1 red fluorescence (56 h, coculture fibroblast: HUF): 0.635 ± 0.13
relative JC-1 red fluorescence (56 h, coculture fibroblast: Hs5): 0.668 ± 0.029
relative JC-1 red fluorescence (56 h, coculture fibroblast: Hs27A): 0.761 ± 0.014
relative JC-1 red fluorescence (56 h, coculture fibroblast: Hs343T): 0.575 ± 0.058
relative JC-1 red fluorescence (56 h, coculture fibroblast: WS1): 0.518 ± 0.053
relative JC-1 red fluorescence (64 h, coculture fibroblast: C12385): 0.551 ± 0.044
relative JC-1 red fluorescence (64 h, coculture fibroblast: H6013): 0.737 ± 0.086
relative JC-1 red fluorescence (64 h, coculture fibroblast: H6019): 0.565 ± 0.044
relative JC-1 red fluorescence (64 h, coculture fibroblast: H6076): 0.677 ± 0.072
relative JC-1 red fluorescence (64 h, coculture fibroblast: H6231): 0.588 ± 0.02
relative JC-1 red fluorescence (64 h, coculture fibroblast: HADF): 0.688 ± 0.088
relative JC-1 red fluorescence (64 h, coculture fibroblast: HCFa): 0.673 ± 0.14
relative JC-1 red fluorescence (64 h, coculture fibroblast: HCPF): 0.655 ± 0.013
relative JC-1 red fluorescence (64 h, coculture fibroblast: HHSteC): 0.601 ± 0.025
relative JC-1 red fluorescence (64 h, coculture fibroblast: HMF): 0.576 ± 0.093
relative JC-1 red fluorescence (64 h, coculture fibroblast: HPFa): 0.608 ± 0.16
relative JC-1 red fluorescence (64 h, coculture fibroblast: HUF): 0.612 ± 0.14
relative JC-1 red fluorescence (64 h, coculture fibroblast: Hs5): 0.635 ± 0.029
relative JC-1 red fluorescence (64 h, coculture fibroblast: Hs27A): 0.723 ± 0.011
relative JC-1 red fluorescence (64 h, coculture fibroblast: Hs343T): 0.556 ± 0.058
relative JC-1 red fluorescence (64 h, coculture fibroblast: WS1): 0.482 ± 0.061
relative JC-1 red fluorescence (72 h, coculture fibroblast: C12385): 0.528 ± 0.037
relative JC-1 red fluorescence (72 h, coculture fibroblast: H6013): 0.721 ± 0.088
relative JC-1 red fluorescence (72 h, coculture fibroblast: H6019): 0.542 ± 0.042
relative JC-1 red fluorescence (72 h, coculture fibroblast: H6076): 0.659 ± 0.071
relative JC-1 red fluorescence (72 h, coculture fibroblast: H6231): 0.543 ± 0.0079
relative JC-1 red fluorescence (72 h, coculture fibroblast: HADF): 0.65 ± 0.096
relative JC-1 red fluorescence (72 h, coculture fibroblast: HCFa): 0.642 ± 0.14
relative JC-1 red fluorescence (72 h, coculture fibroblast: HCPF): 0.605 ± 0.013
relative JC-1 red fluorescence (72 h, coculture fibroblast: HHSteC): 0.577 ± 0.021
relative JC-1 red fluorescence (72 h, coculture fibroblast: HMF): 0.54 ± 0.094
relative JC-1 red fluorescence (72 h, coculture fibroblast: HPFa): 0.555 ± 0.15
relative JC-1 red fluorescence (72 h, coculture fibroblast: HUF): 0.601 ± 0.14
relative JC-1 red fluorescence (72 h, coculture fibroblast: Hs5): 0.606 ± 0.041
relative JC-1 red fluorescence (72 h, coculture fibroblast: Hs27A): 0.6626 ± 0.0011
relative JC-1 red fluorescence (72 h, coculture fibroblast: Hs343T): 0.515 ± 0.056
relative JC-1 red fluorescence (72 h, coculture fibroblast: WS1): 0.454 ± 0.074

± gives the standard deviation of the averaged measurements. The reference is the same well before dosing, and untreated signal decays as well.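 Labels refer to human fibroblasts, largely primary: uterine (C12385, HUF), lung (H6013), bone (Hs27A), adrenal (HADF), skin (WS1), plus mammary HMF and breast cancer-associated Hs343T. Cancer lines are basal-like or mesenchymal-like triple-negative breast cancer. The paper counts as hits responses shifting over 3x the replicate standard deviation. The tissue of the other fibroblasts is not given here.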
